This note sets out measurements from PMC7316882.

Results are given in words; binding and its absence hold for the method and conditions named. In cells and extracts the contact can be indirect. Some results given as binding are weak or reduced against the parent protein; the word gives no strength. Sequences can lack the tags named with a protein.

Test [1] deals with T1, dMYC-Flag (Drosophila melanogaster) (UniProt Q9W4S7).
T1 sequence: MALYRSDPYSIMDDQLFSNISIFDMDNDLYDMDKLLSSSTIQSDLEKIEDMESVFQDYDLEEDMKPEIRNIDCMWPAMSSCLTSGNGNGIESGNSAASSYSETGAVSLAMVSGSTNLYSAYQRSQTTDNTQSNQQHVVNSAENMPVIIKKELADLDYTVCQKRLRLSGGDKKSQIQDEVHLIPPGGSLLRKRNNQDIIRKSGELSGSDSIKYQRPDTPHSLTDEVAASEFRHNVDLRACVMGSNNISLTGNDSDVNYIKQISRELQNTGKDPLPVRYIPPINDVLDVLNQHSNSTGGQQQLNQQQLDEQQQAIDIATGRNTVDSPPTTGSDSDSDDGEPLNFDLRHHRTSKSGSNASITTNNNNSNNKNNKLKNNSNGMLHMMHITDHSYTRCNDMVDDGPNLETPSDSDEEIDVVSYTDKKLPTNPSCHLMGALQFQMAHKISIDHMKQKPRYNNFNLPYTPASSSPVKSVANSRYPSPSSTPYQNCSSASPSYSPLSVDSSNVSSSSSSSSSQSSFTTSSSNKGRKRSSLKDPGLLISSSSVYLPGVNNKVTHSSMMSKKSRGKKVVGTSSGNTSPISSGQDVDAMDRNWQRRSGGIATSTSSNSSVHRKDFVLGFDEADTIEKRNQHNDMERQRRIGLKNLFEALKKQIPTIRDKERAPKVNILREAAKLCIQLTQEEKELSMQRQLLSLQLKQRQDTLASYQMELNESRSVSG
As to the kind of experiment: co-IP; Drosophila S2 cells transfected with the tagged proteins for 48 h; lysis and immunoprecipitation in RIPA buffer (50 mM Tris-HCl, 150 mM NaCl, 1 mM EDTA, 1% IGEPAL, 0.5% sodium deoxycholate) with protease inhibitors and PR-619; lysates precleared; antibody (anti-V5 or anti-dMYC) with protein A or G-Sepharose overnight at 4°C; 4 washes; Western blot.

In test [2] the target is T2, dUSP36-D-V5 (wild-type dUSP36-D isoform, V5-tagged) (Drosophila melanogaster) (UniProt Q9VRP5).
T2 sequence: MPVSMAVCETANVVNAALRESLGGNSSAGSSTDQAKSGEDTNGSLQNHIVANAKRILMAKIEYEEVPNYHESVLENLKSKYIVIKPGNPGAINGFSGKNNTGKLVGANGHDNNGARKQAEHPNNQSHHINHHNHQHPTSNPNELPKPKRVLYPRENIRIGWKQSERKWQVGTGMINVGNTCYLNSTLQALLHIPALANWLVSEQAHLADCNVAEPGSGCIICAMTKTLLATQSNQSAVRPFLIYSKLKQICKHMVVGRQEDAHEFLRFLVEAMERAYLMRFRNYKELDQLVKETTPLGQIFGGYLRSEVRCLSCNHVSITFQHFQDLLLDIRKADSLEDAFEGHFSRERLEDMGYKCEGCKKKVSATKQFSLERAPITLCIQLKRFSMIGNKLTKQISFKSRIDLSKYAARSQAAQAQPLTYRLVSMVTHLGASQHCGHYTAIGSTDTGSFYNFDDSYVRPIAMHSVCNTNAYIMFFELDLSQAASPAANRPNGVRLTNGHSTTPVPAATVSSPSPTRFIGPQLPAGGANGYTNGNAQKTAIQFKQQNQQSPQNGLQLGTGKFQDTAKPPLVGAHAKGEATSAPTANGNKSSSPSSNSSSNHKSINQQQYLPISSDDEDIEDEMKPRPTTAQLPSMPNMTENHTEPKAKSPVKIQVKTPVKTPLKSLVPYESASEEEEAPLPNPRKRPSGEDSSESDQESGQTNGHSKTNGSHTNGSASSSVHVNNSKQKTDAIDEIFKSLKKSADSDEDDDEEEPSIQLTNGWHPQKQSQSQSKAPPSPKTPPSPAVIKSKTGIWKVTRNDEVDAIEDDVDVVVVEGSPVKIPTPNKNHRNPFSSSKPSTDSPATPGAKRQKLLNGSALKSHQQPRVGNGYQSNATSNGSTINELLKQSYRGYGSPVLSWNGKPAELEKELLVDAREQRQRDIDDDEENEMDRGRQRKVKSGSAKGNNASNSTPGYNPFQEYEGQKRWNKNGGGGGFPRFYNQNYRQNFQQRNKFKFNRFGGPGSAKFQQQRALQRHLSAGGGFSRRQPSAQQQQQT
Described as above.

B1: AGO-HA (protein, UniProt Q9VZF4 1-1326)
chain: MERGCPAASSESVTSAGERTQSAVTSSTSTWVKSQASTSRKTEASEESGLGAVDAEVGAGREAFVSMSTLREDVEDVCVSSNSQHGFAVVLDDESSTFEISSSNSLPTSAGAASTVGVVAVDDSSSTDTLNGGHPDLGHPASSEHSRQGFFNEDNEDPPVVCLINDDDDDEEPEPEEDDEEELIEDEDEDAVDIVTGAISCPNTSQLALADGTIMAADGSKIFLETPVVEEAQPHPGQVVTTGSQSELTGKPKRLSDEFLLGEEDQAENLALGRCIKSEPVNPVDDNPSEGDDGATCFSLHDRLMSVRLKQMSLTANTVSNPSPAASANAAAPEEASTSNSSSTSSSALSRADIESMDLIERRDFETEQRLTGGIILRTSSMVSQNKLNLSLIKSMAGGSKAANGSGTANSDDWPSSSNGRTVSSDSKYTYKDLSTTPTSSRKYTNSRLSKSTAKLNLGSSLGASSCSQHRSGSSSTSKSMESSTSCTGAARTDVYTNTNSNDYPSLAPTTSGSSTSGGSCQQDQEENVSASVSYSSVGSQTSQESGCSRTTAINPTAACSTGSACLGDSQASTSASTSSGAGASNRCQYATTSTTKAARQVNASAQTQERFLTRSNPPAASGAGSVGANPTASVRQRRNGSSDVVHLEVVVEEGAGGGDGGVVEPGDFSAEEPWANCDEENNCSDLEEICTCQNGNGSSYGGSNASLSETFDMDAMDPDEPISLSLSSASAGFTEYSLTNPSSLMSHQRKRKFNEGRLLDGGDYSVTISSSGEVGGPGSGVSDNCRKRIAYDFASTPRSSQHLGPTAVLSVTPSSHLTSSTPGSALGRRTPRSVPSRDNPPPELQHWLAQFQRWSHVERLLALDRLIDHCDPSQVRHMMKVIEPQFQRDFISLLPRELALFVLSYLEPKDLLRAAQTCRSWRFLCDDNLLWKEKCRKAQILAEPRSDRPKRGRDGNMPPIASPWKAAYMRQHIIEMNWRSRPVRKPKVLKGHDDHVITCLQFSGNRIVSGSDDNTLKVWSAVNGKCLRTLVGHTGGVWSSQMSGNIIISGSTDRTLKVWDMDSGACVHTLQGHTSTVRCMHLHGSKVVSGSRDATLRVWDIEQGSCLHVLVGHLAAVRCVQYDGKLIVSGAYDYMVKIWHPERQECLHTLQGHTNRVYSLQFDGLHVVSGSLDTSIRVWDVETGNCKHTLMGHQSLTSGMELRQNILVSGNADSTVKVWDITTGQCLQTLSGPNKHHSAVTCLQFNSRFVVTSSDDGTVKLWDVKTGDFIRNLVALDSGGSGGVVWRIRANDTKLICAVGSRNGTEETKLMVLDFDVEGACVKCS
B1: the binding entry in test [1] and in test [2] was “binds” in each case.

B2: dMYC-Flag (protein, UniProt Q9W4S7 1-717)
chain: MALYRSDPYSIMDDQLFSNISIFDMDNDLYDMDKLLSSSTIQSDLEKIEDMESVFQDYDLEEDMKPEIRNIDCMWPAMSSCLTSGNGNGIESGNSAASSYSETGAVSLAMVSGSTNLYSAYQRSQTTDNTQSNQQHVVNSAENMPVIIKKELADLDYTVCQKRLRLSGGDKKSQIQDEVHLIPPGGSLLRKRNNQDIIRKSGELSGSDSIKYQRPDTPHSLTDEVAASEFRHNVDLRACVMGSNNISLTGNDSDVNYIKQISRELQNTGKDPLPVRYIPPINDVLDVLNQHSNSTGGQQQLNQQQLDEQQQAIDIATGRNTVDSPPTTGSDSDSDDGEPLNFDLRHHRTSKSGSNASITTNNNNSNNKNNKLKNNSNGMLHMMHITDHSYTRCNDMVDDGPNLETPSDSDEEIDVVSYTDKKLPTNPSCHLMGALQFQMAHKISIDHMKQKPRYNNFNLPYTPASSSPVKSVANSRYPSPSSTPYQNCSSASPSYSPLSVDSSNVSSSSSSSSSQSSFTTSSSNKGRKRSSLKDPGLLISSSSVYLPGVNNKVTHSSMMSKKSRGKKVVGTSSGNTSPISSGQDVDAMDRNWQRRSGGIATSTSSNSSVHRKDFVLGFDEADTIEKRNQHNDMERQRRIGLKNLFEALKKQIPTIRDKERAPKVNILREAAKLCIQLTQEEKELSMQRQLLSLQLKQRQDTLASYQMELNESRSVSG
For B2, the binding entry in test [2] is listed as “binds”.

B3: dUSP36-D-V5 (wild-type dUSP36-D isoform, V5-tagged) (enzyme, UniProt Q9VRP5 1-1038)
chain: MPVSMAVCETANVVNAALRESLGGNSSAGSSTDQAKSGEDTNGSLQNHIVANAKRILMAKIEYEEVPNYHESVLENLKSKYIVIKPGNPGAINGFSGKNNTGKLVGANGHDNNGARKQAEHPNNQSHHINHHNHQHPTSNPNELPKPKRVLYPRENIRIGWKQSERKWQVGTGMINVGNTCYLNSTLQALLHIPALANWLVSEQAHLADCNVAEPGSGCIICAMTKTLLATQSNQSAVRPFLIYSKLKQICKHMVVGRQEDAHEFLRFLVEAMERAYLMRFRNYKELDQLVKETTPLGQIFGGYLRSEVRCLSCNHVSITFQHFQDLLLDIRKADSLEDAFEGHFSRERLEDMGYKCEGCKKKVSATKQFSLERAPITLCIQLKRFSMIGNKLTKQISFKSRIDLSKYAARSQAAQAQPLTYRLVSMVTHLGASQHCGHYTAIGSTDTGSFYNFDDSYVRPIAMHSVCNTNAYIMFFELDLSQAASPAANRPNGVRLTNGHSTTPVPAATVSSPSPTRFIGPQLPAGGANGYTNGNAQKTAIQFKQQNQQSPQNGLQLGTGKFQDTAKPPLVGAHAKGEATSAPTANGNKSSSPSSNSSSNHKSINQQQYLPISSDDEDIEDEMKPRPTTAQLPSMPNMTENHTEPKAKSPVKIQVKTPVKTPLKSLVPYESASEEEEAPLPNPRKRPSGEDSSESDQESGQTNGHSKTNGSHTNGSASSSVHVNNSKQKTDAIDEIFKSLKKSADSDEDDDEEEPSIQLTNGWHPQKQSQSQSKAPPSPKTPPSPAVIKSKTGIWKVTRNDEVDAIEDDVDVVVVEGSPVKIPTPNKNHRNPFSSSKPSTDSPATPGAKRQKLLNGSALKSHQQPRVGNGYQSNATSNGSTINELLKQSYRGYGSPVLSWNGKPAELEKELLVDAREQRQRDIDDDEENEMDRGRQRKVKSGSAKGNNASNSTPGYNPFQEYEGQKRWNKNGGGGGFPRFYNQNYRQNFQQRNKFKFNRFGGPGSAKFQQQRALQRHLSAGGGFSRRQPSAQQQQQT
In the case of B3, the binding result in test [1] is “binds”.
